The values below come from patent US20050042244A1, “Method of controlling acarian and device for use in the same” (KURARAY CO LTD, priority 2002, published 2005).

This series has as its system human. Description: Odor and effect on human of sampled gas containing farnesylacetone. The settings on record: gas containing 0.001 μg/L farnesylacetone.

Regarding `CC(=O)CC/C=C(\C)CC/C=C(\C)CCC=C(C)C` [farnesylacetone], the “odor of gas for human” value was “almost no smell for human”. Moreover, the “odor of gas for human” value (listed as Farnesylacetone) is reported as “scarcely had an odor detected by human”.
